Test [1] deals with T1, myc-TMED10 (human) (UniProt P49755).
T1 sequence: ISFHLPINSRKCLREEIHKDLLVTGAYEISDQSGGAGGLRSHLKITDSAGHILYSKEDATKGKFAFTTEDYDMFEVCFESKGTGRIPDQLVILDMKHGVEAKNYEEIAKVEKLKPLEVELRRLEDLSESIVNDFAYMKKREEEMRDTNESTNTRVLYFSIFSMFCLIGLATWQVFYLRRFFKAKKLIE
The test is described as follows: co-IP; HCT116 cells transiently transfected with GST-PRL-3 and myc-TMED10 for 48 hours; lysis in 50 mM Tris-HCl pH 7.5, 150 mM NaCl, 1 mM EDTA, 0.5% NP-40; immunoprecipitation with anti-myc antibody, Western blotting. (In western blotting, separated proteins are transferred to a membrane and probed.)

Protein sequences, listed by entry. Tags and fused reporters are not part of them.
UniProt O75365: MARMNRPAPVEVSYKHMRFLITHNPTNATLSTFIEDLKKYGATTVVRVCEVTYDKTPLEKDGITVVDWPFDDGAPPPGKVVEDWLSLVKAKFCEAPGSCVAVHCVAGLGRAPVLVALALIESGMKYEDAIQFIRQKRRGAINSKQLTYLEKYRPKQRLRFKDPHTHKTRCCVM

Test [2] deals with GST-PRL-3 (human) (UniProt O75365). As to the kind of experiment: pull-down; HCT116 cells transiently transfected with GST-PRL-3 and myc-TMED10 for 48 hours; lysis in 50 mM Tris-HCl pH 7.5, 150 mM NaCl, 1 mM EDTA, 0.5% NP-40; GST pull-down from the lysate with Glutathione Sepharose, Western blotting.

No constants are given. Whether binding was seen depends on the method and setting. Binding seen in cells or lysates may run through a third protein. Some results given as binding are weak or reduced against the parent protein; the word gives no strength. Tags and fused reporters may be left off the sequences shown.

GST-PRL-3 (from UniProt O75365 1-173): the binding entry in test [1] is “binds”.

B1: myc-TMED10 (protein, UniProt P49755 32-219)
chain: ISFHLPINSRKCLREEIHKDLLVTGAYEISDQSGGAGGLRSHLKITDSAGHILYSKEDATKGKFAFTTEDYDMFEVCFESKGTGRIPDQLVILDMKHGVEAKNYEEIAKVEKLKPLEVELRRLEDLSESIVNDFAYMKKREEEMRDTNESTNTRVLYFSIFSMFCLIGLATWQVFYLRRFFKAKKLIE
For B1, the binding result in test [2] is “binds”.

The values are drawn from PMC10475362.
